According to patent publication US20100184851A1, “INHIBITION OF CELL PROLIFERATION” (priority 2008, published 2010):
At least one compound was matched to its structure with a doubt left. Some compounds share one wording; it may come from a single statement.

What was measured:
[1] = tested on: Ramos cells (Burkitt's Lymphoma); test: MTT cell viability assay, Ramos; type: cell-based; conditions: 10 μM, 20 μM, or 50 μM for 24 hours
MMP9 = test: Quantitative real-time PCR, MMP9 expression; type: cell-based; conditions: MDAMB231 cells, 50 μM, 24 hours
[2] = tested on: A549 cells stably expressing Rb shRNAs (sh6 and sh8); test: BrdU incorporation assay, A549 cells with Rb shRNA; type: cell-based, human; conditions: A549 sh6 and sh8 lacking Rb; 5, 10 and 20 μM
[3] = tested on: A549 cells with control shRNA (having Raf-1); test: BrdU incorporation, A549 cells with control shRNA; type: cell-based, human; conditions: 20 μM
[4] = tested on: Human aortic endothelial cells (HAECs); test: Angiogenic tubule formation in matrigel; type: cell-based; conditions: 20, 50 and 100 μM
FLT1 = test: Quantitative real-time PCR, FLT1 expression; type: cell-based; conditions: human aortic endothelial cells, 50 μM, 18 hours
MMP14 = test: Quantitative real-time PCR, MMP14 expression; type: cell-based; conditions: MDAMB231 cells, 50 μM, 24 hours
U937 myeloid cells = test: MTT cell viability assay, U937; type: cell-based, human; conditions: 10 μM, 20 μM, or 50 μM for 24 hours
binding of Raf-1 to Rb = target: T1, binding of Raf-1 to Rb (Homo sapiens, UniProt P06400); test: Immunoprecipitation-Western blot, Rb:Raf-1 in intact U937 cells; type: cell-based; conditions: serum stimulated 2 hours, 20 μM
T1 construct: endogenous in cells; host or cells: U937
T1 sequence (P06400 1-928): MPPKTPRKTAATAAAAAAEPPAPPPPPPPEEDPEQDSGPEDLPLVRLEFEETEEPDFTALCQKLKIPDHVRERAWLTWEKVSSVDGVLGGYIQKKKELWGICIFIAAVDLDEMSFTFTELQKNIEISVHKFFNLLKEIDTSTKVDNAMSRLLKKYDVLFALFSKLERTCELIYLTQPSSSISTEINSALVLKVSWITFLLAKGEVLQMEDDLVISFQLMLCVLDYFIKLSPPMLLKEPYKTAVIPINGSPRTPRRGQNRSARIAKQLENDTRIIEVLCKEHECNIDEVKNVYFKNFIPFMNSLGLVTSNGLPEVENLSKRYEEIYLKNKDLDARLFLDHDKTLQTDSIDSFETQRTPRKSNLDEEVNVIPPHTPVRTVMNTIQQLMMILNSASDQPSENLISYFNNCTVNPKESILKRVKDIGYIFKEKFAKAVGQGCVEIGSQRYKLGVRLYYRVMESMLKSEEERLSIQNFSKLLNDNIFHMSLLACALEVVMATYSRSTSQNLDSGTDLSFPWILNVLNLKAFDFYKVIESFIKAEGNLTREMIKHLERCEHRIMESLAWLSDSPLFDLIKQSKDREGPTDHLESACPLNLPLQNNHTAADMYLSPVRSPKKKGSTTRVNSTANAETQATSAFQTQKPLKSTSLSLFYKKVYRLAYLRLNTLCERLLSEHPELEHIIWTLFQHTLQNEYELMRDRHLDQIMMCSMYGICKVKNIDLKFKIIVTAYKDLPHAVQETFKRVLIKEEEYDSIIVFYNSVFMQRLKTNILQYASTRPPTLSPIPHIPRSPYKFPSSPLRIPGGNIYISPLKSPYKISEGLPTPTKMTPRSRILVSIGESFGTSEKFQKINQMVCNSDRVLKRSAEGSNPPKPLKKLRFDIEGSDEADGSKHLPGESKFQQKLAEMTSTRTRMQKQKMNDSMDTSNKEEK

[5] = tested on: A549 cells (human epithelial lung carcinoma); test: BrdU incorporation assay, wild-type (parental) A549 cells; type: cell-based; conditions: for inhibition of S-phase entry: parental A549 cells; for inhibition of proliferation (BrdU incorporation): wild-type A549, 5, 10, 20, 30 and 50 μM
KDR = test: Quantitative real-time PCR, KDR expression; type: cell-based; conditions: human aortic endothelial cells, 50 μM, 18 hours
A549 cells = test: A549 xenograft tumor growth in nude mice; type: in vivo; conditions: 150 mg/kg daily; treatment from 200 mm^3; vehicle tumors over 1200 mm^3
MMP15 = test: Quantitative real-time PCR, MMP15 expression; type: cell-based; conditions: MDAMB231 cells, 50 μM, 24 hours
A549 tumors = conditions: i.p. or oral gavage; cited from earlier work
[6] = tested on: U2-OS, A549, H1650, Aspc1, PANC1, CAPAN2, U87MG, U251MG, MDA-MB-231, A375, LNCaP and PC3 cells; conditions: from WO2007/062222; cited from earlier work
[7] = tested on: A-549 tumors where Rb was knockdown; conditions: cited from earlier work
[8] = tested on: PANC-1, CAPAN-2, MeI-5, MCF-7, LNCAP, A549, PC-3 cells; test: BrdU incorporation assay, range of cancer cells; type: cell-based, human; conditions: 20 μM

SMILES	cell viability (MTT) [1]	expression of MMP9 (MMP9)	inhibition of S-phase entry [2]	proliferation (S-phase entry, BrdU incorporation) [3]	angiogenic tubule formation [4]	expression of FLT1 (FLT1)	expression of MMP14 (MMP14)	cell viability (MTT) (U937 myeloid cells)	binding of Raf-1 to Rb (immunoprecipitation-Western blot) (binding of Raf-1 to Rb)	inhibition of S-phase entry [5]	inhibition of proliferation (BrdU incorporation) [5]	expression of KDR (KDR)	human tumor growth (A549 cells)	expression of MMP15 (MMP15)	tumor response (A549 tumors)	proliferation of Rb-expressing cancer cells [6]	tumor response [7]	proliferation of cancer cells (BrdU incorporation) [8]	Rb dependence of proliferation arrest ([8]; compared to Rb-deficient A549 sh6, sh8 and DU145)
Cl.N=C(N)NC(=N)SCc1ccc(F)cc1F [Compound 10b, (2,4-Difluorophenyl)methyl Amidinoisothiourea Hydrochloride]	dose-dependent reduction in cell number	inhibited	little or no effect	inhibited	significantly inhibited	inhibits expression	inhibited	dose-dependent reduction in cell number	significantly inhibited	very effective at inhibiting S-phase entry	dose-dependent inhibition	inhibits expression	substantially inhibited	inhibited					
Cl.N=C(N)SCc1ccc(Cl)cc1Cl [Compound 3a, (2,4-Dichlorophenyl)methyl Isothiourea Hydrochloride]	dose-dependent reduction in cell number	inhibited				inhibits expression	inhibited	dose-dependent reduction in cell number				inhibits expression		inhibited	responded to treatment	inhibit the proliferation	resistant		
Cl.N=C(N)NC(=N)SCc1ccc(F)cc1Cl [Compound 10a, (2-Chloro-4-fluorophenyl)methyl Amidinoisothiourea Hydrochloride]											dose-dependent inhibition								
Cl.N=C(N)SCc1ccc(F)cc1F [Compound 3w, (2,4-Difluorophenyl)methyl isothiourea Hydrochloride]											dose-dependent inhibition								
Cl.N=C(N)NC(=N)SCc1ccc(Cl)cc1Cl [Compound 10c, (2,4-Dichlorophenyl)methyl Amidinoisothiourea Hydrochloride]	dose-dependent reduction in cell number	inhibited	little or no effect	inhibited	significantly inhibited	inhibits expression	inhibited	dose-dependent reduction in cell number	significantly inhibited	very effective at inhibiting S-phase entry	dose-dependent inhibition	inhibits expression	substantially inhibited	inhibited				inhibited the proliferation	in a Rb dependent manner
